58 molecules from PubChem BioAssay AID2685 (National Center for Advancing Translational Sciences (NCATS), 2010) can be followed below.

The experiment in a line: qHTS Assay for Lipid Storage Modulators in Drosophila S3 Cells.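 As to cell number change: cells counted by Cell Tracker Red CMTPX staining in the red channel.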 To be noted: BODIPY lipid droplet fluorescence, 18-24 h; for cell number change: measured here: cell count max response, cells fed with added oleic acid. An outline of the steps:
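Drosophila S3 cells loaded with oleic acid (400 uM, as added) and compounds at several concentrations; lipid droplets imaged by 488-nm laser-scanning cytometry, 500–530 nm intensity and object ratio to cell channel. Percent activity normalized to 20 uM Triacsin C.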
A general note: qHTS replaces the single test concentration by a dilution series.

Where [1] appears, read: measured here: lipid fluorescence (Fed channel) AC50, cells fed with added oleic acid.
The mark [2] stands for this setting: measured here: cell number channel AC50, cells fed with added oleic acid.

SMILES strings stand for the structures. Several values for one entry are separate records, joined by “and”; a condition that tells them apart may be missing. Equal entries are not always repeated. The list shows a part of the results. The main result of the screen is listed elsewhere. These columns were measured beside it and carry no call. Most of these compounds were active or inconclusive in the main read-out, so they are no random draw. Potencies come from curve fits of mixed quality, noted in brackets.

In the case of `Cc1ccc(S(=O)(=O)N(C)C)cc1NC(=O)c1cc(=O)c2ccccc2o1`, the cell number change came to 7.26%. Moreover, the AC50 under setting [1] is 0.0651 µM [falling, full curve, poor fit].
Turning to `CCCCCCCOc1ccc(C(=O)Nc2cccnc2)cc1`, the cell number change is -4.74%. Under setting [1], the AC50 was 29.1 µM [falling, single point].
On to `O=C(Nc1cccc(Cl)c1)Nc1c[nH]c(=O)[nH]c1=O`, for which the cell number change is -9.72%.
Regarding `O=C(NCCCN1CCCCC1)c1ccc(CS(=O)c2ccc(Cl)cc2)o1` (configuration not stated), the cell number change was -17.4%. The AC50 under setting [1] was 29.1 µM [falling, single point].
In the case of `O=C(NCc1cc([N+](=O)[O-])ccc1O)c1cccnc1Sc1ccccc1Cl`, the cell number change worked out at 22.2%.
As to `Cc1ccc(NC(=S)N2CCCCCC2)c(C)c1`, the cell number change is -3.47%. Also, the AC50 under setting [1] was 6.51 µM [rising, single point].
As for `CCn1c(CNC(=O)COc2ccc(C(C)C)cc2)nnc1SCC(=O)Nc1ccccc1F`, the cell number change came out at 18%. The AC50 under setting [1] is 1.84 µM [falling, partial curve].
As to `CCOC(=O)C1CCCN(C(=O)c2ccc3c(=O)n(CCOC)c(=S)[nH]c3c2)C1` (configuration not stated), the cell number change was -22.2%. The AC50 under setting [1] was 29.1 µM [falling, single point].
Regarding `CCOC(=O)C(C(=O)NCc1ccc(F)cc1)c1ncc(C(F)(F)F)cc1Cl` (configuration not stated), the cell number change is -18.5%. Under setting [1], the AC50 was 4.11 µM [rising, full curve].
For `COc1ccc(OCCC(=O)NCCN2CCOCC2)cc1`, the cell number change is 59%. For the same molecule, under setting [1], the AC50 is 29.1 µM [rising, single point].
As to `CCCOC(=O)c1ccc(OC(=O)c2ccco2)cc1`, the cell number change is -11.6%. The concentration at half-maximal activity (AC50) under setting [1] was 2.31 µM [falling, full curve].
With `COC(=O)/N=C/c1c(NCc2ccccc2)nc2c(C)cccn2c1=O`, the half-maximal activity concentration (AC50) is, setting by setting: under setting [2], 2.31 µM [rising, partial curve]; under setting [1], 0.58 µM [rising, single point].
For `CCOc1ccc(NC(=O)CN2CCN(CC(=O)Nc3ccc(Cl)c(C(F)(F)F)c3)CC2)cc1`, the cell number change was -2.53%. Further, the AC50 under setting [1] is 0.82 µM [falling, full curve].
Consider `O=C(COC(=O)C1CCN(c2ccc(C(F)(F)F)cn2)CC1)c1ccc(F)cc1`, for which the cell number change was 1.96%. Besides, under setting [1], the AC50 is 25.9 µM [falling, single point].
On to `CC(=O)c1cccc(S(=O)(=O)NCCCN2CCOCC2)c1`, for which the cell number change was -6.89%. For the same molecule, under setting [1], the AC50 was 0.58 µM [falling, single point].
Regarding `COc1cccc2cc(C(C)N(CCCN3CCOCC3)C(=S)Nc3ccccc3C)oc12` (configuration not stated), the cell number change is -15.6%. Besides, the AC50 under setting [2] is 0.058 µM [falling, full curve, poor fit]. Also, the AC50 under setting [1] was 7.31 µM [falling, single point].
With `N#Cc1ccc(C2=NC(C(F)(F)F)(C(F)(F)F)c3c(n(Cc4ccco4)c(=O)[nH]c3=O)N2)cc1`, the AC50 under setting [1] was 0.103 µM [falling, full curve, poor fit].
Turning to `CCc1ccc2c(c1)cc(CN(C(=S)Nc1ccccc1Cl)C1CC1)c1nnnn12`, the cell number change was 6.07%. Further, under setting [2], the AC50 is 0.517 µM [rising, partial curve]. The AC50 under setting [1] is 1.03 µM [rising, full curve].
For the molecule `CCCCNC(=O)C1(O)c2cc(Br)ccc2NC(=O)N1c1cccc(OC)c1` (configuration not stated), the cell number change amounted to 22.4%. Also, the AC50 under setting [1] was 32.6 µM [rising, single point].
Consider `COc1ccc(C2/C(=C(\O)c3ccc4c(c3)OCCO4)C(=O)C(=O)N2CCCn2ccnc2)cc1` (configuration not stated), for which the cell number change was 9.91%. Further, under setting [1], the AC50 is 0.651 µM [falling, single point].
With `COc1ccc(C2C3=C(Nc4ncnn42)c2ccccc2CCC3)cc1` (configuration not stated), the cell number change was -6.98%. Besides, under setting [1], the AC50 was 1.46 µM [rising, full curve].
`CC1=C(C(=O)Nc2ccccn2)C(c2ccc(N(C)C)cc2)n2ncnc2N1` (configuration not stated): the cell number change is -23.3%. In addition, the AC50 under setting [1] is 29.1 µM [falling, single point].
Regarding `CCN(CC)C(=O)C1CCN(S(=O)(=O)c2ccc(C3CNC(=O)C3)cc2)CC1` (configuration not stated), the cell number change is 9.93%. In addition, under setting [1], the AC50 is 3.66 µM [falling, single point].
Take `COc1ccc(-c2nc3c4c(ncn3n2)-c2ccccc2CC42CCCC2)cc1`: the cell number change is -9.94%. Also, the AC50 under setting [1] was 6.51 µM [falling, single point].
For the molecule `O=C(Nc1ccccc1)Nc1ccccn1`, the cell number change is 16.7% and 1.6%. In addition, the AC50 under setting [2] is 0.231 µM [rising, full curve, poor fit]. Under setting [1], the AC50 was 82 nM [rising, full curve, poor fit] and 3.66 µM [rising, single point].
With `S=C(Nc1ccc(Oc2ccccc2)cc1)N(CCCN1CCOCC1)Cc1ccccn1`, the cell number change is -33.8%. Also, the concentration at half-maximal activity (AC50) under setting [2] was 32.6 µM [falling, single point].
As to `CCCCc1nnc(NC(=O)c2ccc3[nH]c(=O)c(=O)[nH]c3c2)s1`, the cell number change came to 2.67%. The AC50 under setting [1] was 23.1 µM [rising, single point].
On to `CC(C1CC2CCC1C2)n1c(COc2ccccc2F)nnc1SCC(N)=O` (configuration not stated), for which the cell number change is -42.8%.
Turning to `CN(c1ccccc1)S(=O)(=O)c1ccc(NC(=O)c2ccc(-c3ccccc3)cc2)cc1`, the cell number change is -5.12%. Also, the AC50 under setting [1] was 18.4 µM [falling, single point].
On to `O=C(Nc1nnc(C2CC2)s1)c1cc2c(s1)CCCCCC2`, for which the cell number change is -16.9%. Also, the AC50 under setting [1] is 0.0731 µM [falling, full curve, poor fit].
Regarding `COc1ccc(C(=O)N2CCCC(Nc3ccc(C(C)C)cc3)C2)c(OC)n1` (configuration not stated), the cell number change is 0.88%. Also, the AC50 under setting [1] is 0.103 µM [falling, full curve, poor fit].
With `COC(=O)CCCC(=O)NC1CC(C)(C)Cc2c1cnn2-c1ccc(C)cc1` (configuration not stated), the cell number change is -30.2%. In addition, under setting [2], the concentration at half-maximal activity (AC50) was 13 µM [falling, single point]. Under setting [1], the AC50 was 29.1 µM [falling, single point].
As to `c1ccc(-n2ncc3c(NCc4cccnc4)ncnc32)cc1`, the cell number change was determined as 21.6%. The AC50 under setting [1] was 18.4 µM [rising, partial curve].
In the case of `CSCCC(NC(=O)c1cc(C(C)(C)C)oc1C)C(=O)O` (configuration not stated), the cell number change is -22.6%. Under setting [2], the concentration at half-maximal activity (AC50) was 2.06 µM [falling, full curve, poor fit]. Further, the AC50 under setting [1] was 32.6 µM [falling, single point].
For `Cc1ccc(C)c(OCCCCCn2ccnc2)c1`, the half-maximal activity concentration (AC50) under setting [1] was 23.1 µM [rising, single point].
`CC(C)(C)C(=O)C[n+]1ccccc1`: the cell number change was -15.8%. Moreover, under setting [1], the AC50 was 0.013 µM [falling, partial curve].
`CCOCCCn1c(=NC(C)=O)c(C(=O)OCC)cc2c(=O)n3ccccc3nc21`: the cell number change is 119%. Moreover, under setting [2], the AC50 was 1.46 µM [rising, full curve]. Moreover, the AC50 under setting [1] is 2.06 µM [rising, full curve].
For `O=C(O)C1CCCCC1C(=O)NCCc1ccc(F)cc1` (configuration not stated), the cell number change was -9.6%. Also, under setting [1], the AC50 was 5.8 µM [falling, partial curve].
Consider `COCCn1c(Cc2ccccc2)nnc1SCC(=O)Nc1ccccc1`, for which the cell number change was -15.5%. For the same molecule, the AC50 under setting [2] was 6.51 µM [falling, single point].
In the case of `CC(C)CNC(=S)NC1CC2CCC(C1)N2Cc1ccccc1` (configuration not stated), the cell number change was -19.3%.
Turning to `N#Cc1c2n(c3c(=O)n(Cc4ccccc4)cnc13)CCCC2`, the AC50 under setting [2] was 2.59 µM [rising, partial curve].
As for `Nc1nc(-c2ccc3c(c2)CCC(=O)N3)cs1`, the cell number change is 34%.
In the case of `O=C(Nc1ccccc1)Nc1ncc([N+](=O)[O-])s1`, the cell number change was -59%. Also, the AC50 under setting [2] was 20.6 µM [falling, single point]. In addition, under setting [1], the AC50 was 23.1 µM [falling, partial curve].
As to `Fc1ccc(-c2nnc(CSc3nnc4ccccn34)o2)cc1`, the cell number change was found to be 14.2%. Also, the AC50 under setting [1] is 2.31 µM [rising, partial curve].
With `CN(CC(=O)O/N=C(\N)c1ccc([N+](=O)[O-])cc1)S(=O)(=O)c1ccc2ccccc2c1`, the cell number change was determined as 0.445%. Further, the AC50 under setting [1] is 0.13 µM [falling, full curve, poor fit].
Consider `CC(=O)/C(=C/N(C)C)C(=O)Nc1ccc(Cl)cc1Cl`, for which the cell number change was -7.69%. Further, the AC50 under setting [1] was 20.6 µM [falling, single point].
Consider `Cc1[nH]c(-c2ccc(F)cc2)cc1C(=O)N1CCN(c2ccc(Cl)cc2)CC1`, for which the cell number change is 61.3%. Moreover, the AC50 under setting [2] was 6.51 µM [rising, full curve]. Under setting [1], the concentration at half-maximal activity (AC50) was 4.11 µM [rising, full curve].
With `C=CCn1c(=NC(=O)C2CCCCC2)sc2cc(NC(C)=O)ccc21`, the cell number change was determined as 29%. Moreover, under setting [1], the AC50 was 2.59 µM [rising, full curve].
Turning to `Cc1ccc(NC(=O)/C=C/c2ccc([N+](=O)[O-])s2)cc1`, the cell number change was -18.6%. Further, the AC50 under setting [1] is 2.59 µM [falling, partial curve].
Regarding `CC1(C)OC2OC(C(=O)N/N=C/c3cc(Br)ccc3O)C3OC(C)(C)OC3C2O1` (configuration not stated), the cell number change was -32.4%. The AC50 under setting [2] is 3.66 µM [falling, single point]. For the same molecule, the half-maximal activity concentration (AC50) under setting [1] was 6.51 µM [falling, full curve].
Take `Cc1ccc2[nH]c(=O)c(N3CCOCC3)c(-c3ccccc3)c2c1`: the cell number change was -30.2%. Under setting [2], the AC50 was 32.6 µM [falling, single point].
Regarding `COc1cccc(NC(=O)C2CCN(S(=O)(=O)c3ccc4c(c3)NC(=O)C(C)S4)CC2)c1` (configuration not stated), the cell number change is -20.1%. For the same molecule, under setting [1], the AC50 was 6.51 µM [rising, single point].
For `CCOC(=O)C1=C(C)NC(C)=C(C(=O)OCC)C1C(=O)OC1CCOC1=O` (configuration not stated), the cell number change came to 11.5%.
On the same count and under the same terms, then `COc1ccc(-n2c(SCC3CNC(=O)O3)nnc2-c2ccc(Cl)cc2)cc1` (configuration not stated), with -1.9%.
Consider `CC(C(=O)c1ccc(Br)cc1)[n+]1cccc2ccccc21` (configuration not stated), for which the cell number change was 45.3%. For the same molecule, the AC50 under setting [2] is 14.6 µM [rising, partial curve, poor fit]. In addition, the AC50 under setting [1] was 3.66 µM [falling, full curve].
In the case of `COC(=O)c1ccc(OCC(=O)c2ccccc2OC)cc1`, the AC50 was 2.06 µM [rising, partial curve] under setting [2] and 14.6 µM [rising, partial curve] under setting [1].
For `CCN(CC)S(=O)(=O)c1ccc(OC)c(NC(=O)C(C)Oc2ccc3c(C)cc(=O)oc3c2)c1` (configuration not stated), the cell number change is 17.7%. Further, under setting [1], the AC50 is 0.326 µM [rising, full curve, poor fit].
As for `O=C(CCNC(=O)c1ccccc1Cl)OCC(=O)c1ccccc1`, the cell number change is -99.4%. The AC50 under setting [2] was 23.1 µM [falling, partial curve]. Besides, under setting [1], the AC50 was 18.4 µM [falling, partial curve].

Broadly, the AC50 is the concentration giving half of the maximal activity seen.
